log2 fold change data for 39 targets are collected here from the supplement of paper PMC12819154, “High-throughput peptide-centric local stability assay extends protein–ligand identification to membrane proteins, tissues and bacteria” (Nature Structural & Molecular Biology, 2025).

Chains of the proteins cited; added tags and fusions are not shown. Lines headed by an entry give the natural chain unless they say otherwise; changes in a name come on top.
UniProt Q64437: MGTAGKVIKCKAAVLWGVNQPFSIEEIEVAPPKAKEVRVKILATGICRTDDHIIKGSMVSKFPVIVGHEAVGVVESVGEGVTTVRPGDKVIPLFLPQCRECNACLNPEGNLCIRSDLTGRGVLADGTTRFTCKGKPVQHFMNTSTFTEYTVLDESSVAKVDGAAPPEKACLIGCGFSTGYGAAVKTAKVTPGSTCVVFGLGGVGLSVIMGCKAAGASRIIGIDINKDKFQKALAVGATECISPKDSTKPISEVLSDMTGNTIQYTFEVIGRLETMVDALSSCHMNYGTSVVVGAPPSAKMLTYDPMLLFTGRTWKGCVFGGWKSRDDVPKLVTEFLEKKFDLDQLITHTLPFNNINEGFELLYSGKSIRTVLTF
UniProt Q64339: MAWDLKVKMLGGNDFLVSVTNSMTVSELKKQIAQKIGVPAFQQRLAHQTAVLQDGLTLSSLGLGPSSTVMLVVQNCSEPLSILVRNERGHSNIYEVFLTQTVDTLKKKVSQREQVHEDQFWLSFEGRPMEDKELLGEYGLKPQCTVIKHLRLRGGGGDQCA
UniProt Q640Q5: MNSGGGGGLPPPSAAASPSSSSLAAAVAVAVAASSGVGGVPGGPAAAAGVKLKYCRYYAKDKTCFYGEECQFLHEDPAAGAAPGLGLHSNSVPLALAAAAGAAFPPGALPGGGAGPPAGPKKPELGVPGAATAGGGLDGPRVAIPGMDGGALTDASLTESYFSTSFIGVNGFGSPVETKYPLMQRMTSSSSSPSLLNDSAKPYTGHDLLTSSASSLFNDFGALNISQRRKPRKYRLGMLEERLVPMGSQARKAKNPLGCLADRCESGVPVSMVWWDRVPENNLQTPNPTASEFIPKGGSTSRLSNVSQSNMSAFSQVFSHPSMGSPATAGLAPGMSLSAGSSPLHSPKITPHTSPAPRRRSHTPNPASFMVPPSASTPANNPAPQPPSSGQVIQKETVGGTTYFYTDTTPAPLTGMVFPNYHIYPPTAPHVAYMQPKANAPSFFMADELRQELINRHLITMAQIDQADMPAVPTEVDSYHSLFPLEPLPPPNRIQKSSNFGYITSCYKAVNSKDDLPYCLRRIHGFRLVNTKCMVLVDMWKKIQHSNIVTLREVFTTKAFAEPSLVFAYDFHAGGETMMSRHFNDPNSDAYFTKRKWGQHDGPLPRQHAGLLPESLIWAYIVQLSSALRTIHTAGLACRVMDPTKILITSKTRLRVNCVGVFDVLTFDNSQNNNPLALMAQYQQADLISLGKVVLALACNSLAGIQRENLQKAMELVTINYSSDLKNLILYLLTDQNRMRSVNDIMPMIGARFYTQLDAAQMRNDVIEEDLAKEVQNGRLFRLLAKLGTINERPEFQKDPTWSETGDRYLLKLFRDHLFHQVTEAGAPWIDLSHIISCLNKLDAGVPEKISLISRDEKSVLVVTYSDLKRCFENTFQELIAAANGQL
UniProt Q689Z5: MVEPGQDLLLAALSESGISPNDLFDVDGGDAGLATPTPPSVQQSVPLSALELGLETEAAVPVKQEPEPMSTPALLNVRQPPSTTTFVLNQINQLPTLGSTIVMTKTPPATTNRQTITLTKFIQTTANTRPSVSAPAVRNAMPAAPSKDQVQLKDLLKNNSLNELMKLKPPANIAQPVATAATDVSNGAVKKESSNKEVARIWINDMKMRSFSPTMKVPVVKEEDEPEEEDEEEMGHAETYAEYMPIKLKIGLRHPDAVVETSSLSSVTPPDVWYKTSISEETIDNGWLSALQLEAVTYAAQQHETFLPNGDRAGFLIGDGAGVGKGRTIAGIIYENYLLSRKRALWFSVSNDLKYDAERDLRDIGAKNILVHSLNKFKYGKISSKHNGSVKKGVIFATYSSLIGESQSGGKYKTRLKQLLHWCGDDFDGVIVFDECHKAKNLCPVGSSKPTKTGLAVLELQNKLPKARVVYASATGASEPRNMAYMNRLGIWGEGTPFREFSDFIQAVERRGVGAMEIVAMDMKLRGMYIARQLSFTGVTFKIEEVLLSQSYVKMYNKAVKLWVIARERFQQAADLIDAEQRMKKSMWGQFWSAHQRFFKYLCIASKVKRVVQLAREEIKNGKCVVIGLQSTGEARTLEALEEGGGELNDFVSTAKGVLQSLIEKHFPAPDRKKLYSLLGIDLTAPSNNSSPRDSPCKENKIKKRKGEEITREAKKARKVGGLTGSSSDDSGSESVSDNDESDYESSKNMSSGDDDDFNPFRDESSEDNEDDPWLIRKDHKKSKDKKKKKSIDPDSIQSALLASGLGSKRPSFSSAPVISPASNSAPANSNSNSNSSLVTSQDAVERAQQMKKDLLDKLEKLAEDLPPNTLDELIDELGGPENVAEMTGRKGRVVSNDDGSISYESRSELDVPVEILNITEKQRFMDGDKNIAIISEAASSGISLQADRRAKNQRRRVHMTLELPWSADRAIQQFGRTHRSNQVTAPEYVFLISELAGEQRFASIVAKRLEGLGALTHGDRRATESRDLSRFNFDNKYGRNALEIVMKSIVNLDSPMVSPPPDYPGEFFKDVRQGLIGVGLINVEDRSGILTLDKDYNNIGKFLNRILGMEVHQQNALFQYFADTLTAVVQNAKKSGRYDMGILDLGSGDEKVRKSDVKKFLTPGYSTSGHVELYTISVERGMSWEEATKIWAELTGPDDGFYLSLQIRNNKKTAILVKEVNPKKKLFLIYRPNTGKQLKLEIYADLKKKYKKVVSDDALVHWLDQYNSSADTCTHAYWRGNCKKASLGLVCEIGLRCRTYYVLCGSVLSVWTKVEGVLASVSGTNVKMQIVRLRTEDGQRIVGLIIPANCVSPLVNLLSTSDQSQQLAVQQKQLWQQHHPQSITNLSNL
UniProt Q69ZJ7: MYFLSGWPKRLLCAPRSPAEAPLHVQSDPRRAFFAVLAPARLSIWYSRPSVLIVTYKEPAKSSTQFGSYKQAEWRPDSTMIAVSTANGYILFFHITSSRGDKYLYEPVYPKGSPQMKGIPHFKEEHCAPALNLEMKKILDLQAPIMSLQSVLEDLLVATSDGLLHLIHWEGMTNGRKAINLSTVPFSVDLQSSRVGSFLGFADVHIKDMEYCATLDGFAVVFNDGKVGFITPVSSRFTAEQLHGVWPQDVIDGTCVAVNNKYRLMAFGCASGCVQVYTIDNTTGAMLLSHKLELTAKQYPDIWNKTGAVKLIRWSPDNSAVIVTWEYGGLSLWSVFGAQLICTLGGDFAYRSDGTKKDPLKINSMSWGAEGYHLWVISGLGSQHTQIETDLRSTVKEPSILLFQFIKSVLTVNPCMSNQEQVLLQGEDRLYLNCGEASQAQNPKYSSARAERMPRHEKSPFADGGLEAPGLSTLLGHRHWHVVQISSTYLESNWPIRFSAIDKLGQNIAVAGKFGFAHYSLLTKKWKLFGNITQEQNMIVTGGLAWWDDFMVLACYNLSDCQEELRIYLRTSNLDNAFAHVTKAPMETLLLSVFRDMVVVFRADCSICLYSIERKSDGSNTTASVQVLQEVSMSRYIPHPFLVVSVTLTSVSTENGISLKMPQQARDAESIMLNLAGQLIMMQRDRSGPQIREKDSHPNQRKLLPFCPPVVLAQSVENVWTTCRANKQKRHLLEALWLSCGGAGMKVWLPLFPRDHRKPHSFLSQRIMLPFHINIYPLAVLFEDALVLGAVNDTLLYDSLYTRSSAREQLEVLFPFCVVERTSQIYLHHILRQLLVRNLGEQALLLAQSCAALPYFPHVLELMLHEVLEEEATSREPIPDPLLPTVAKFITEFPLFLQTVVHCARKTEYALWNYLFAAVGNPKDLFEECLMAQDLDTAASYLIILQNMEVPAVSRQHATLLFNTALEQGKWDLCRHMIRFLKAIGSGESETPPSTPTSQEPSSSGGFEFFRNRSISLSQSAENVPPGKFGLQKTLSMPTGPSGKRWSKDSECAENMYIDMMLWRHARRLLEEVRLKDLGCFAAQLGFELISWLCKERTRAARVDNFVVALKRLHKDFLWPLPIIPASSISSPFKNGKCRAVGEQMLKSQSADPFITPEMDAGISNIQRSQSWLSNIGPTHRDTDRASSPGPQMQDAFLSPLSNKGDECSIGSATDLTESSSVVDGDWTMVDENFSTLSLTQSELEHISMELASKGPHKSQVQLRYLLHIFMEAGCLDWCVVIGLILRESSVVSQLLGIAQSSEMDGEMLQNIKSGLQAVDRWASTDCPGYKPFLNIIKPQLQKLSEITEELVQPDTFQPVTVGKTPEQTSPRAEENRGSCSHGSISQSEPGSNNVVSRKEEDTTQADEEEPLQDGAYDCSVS
UniProt Q61549: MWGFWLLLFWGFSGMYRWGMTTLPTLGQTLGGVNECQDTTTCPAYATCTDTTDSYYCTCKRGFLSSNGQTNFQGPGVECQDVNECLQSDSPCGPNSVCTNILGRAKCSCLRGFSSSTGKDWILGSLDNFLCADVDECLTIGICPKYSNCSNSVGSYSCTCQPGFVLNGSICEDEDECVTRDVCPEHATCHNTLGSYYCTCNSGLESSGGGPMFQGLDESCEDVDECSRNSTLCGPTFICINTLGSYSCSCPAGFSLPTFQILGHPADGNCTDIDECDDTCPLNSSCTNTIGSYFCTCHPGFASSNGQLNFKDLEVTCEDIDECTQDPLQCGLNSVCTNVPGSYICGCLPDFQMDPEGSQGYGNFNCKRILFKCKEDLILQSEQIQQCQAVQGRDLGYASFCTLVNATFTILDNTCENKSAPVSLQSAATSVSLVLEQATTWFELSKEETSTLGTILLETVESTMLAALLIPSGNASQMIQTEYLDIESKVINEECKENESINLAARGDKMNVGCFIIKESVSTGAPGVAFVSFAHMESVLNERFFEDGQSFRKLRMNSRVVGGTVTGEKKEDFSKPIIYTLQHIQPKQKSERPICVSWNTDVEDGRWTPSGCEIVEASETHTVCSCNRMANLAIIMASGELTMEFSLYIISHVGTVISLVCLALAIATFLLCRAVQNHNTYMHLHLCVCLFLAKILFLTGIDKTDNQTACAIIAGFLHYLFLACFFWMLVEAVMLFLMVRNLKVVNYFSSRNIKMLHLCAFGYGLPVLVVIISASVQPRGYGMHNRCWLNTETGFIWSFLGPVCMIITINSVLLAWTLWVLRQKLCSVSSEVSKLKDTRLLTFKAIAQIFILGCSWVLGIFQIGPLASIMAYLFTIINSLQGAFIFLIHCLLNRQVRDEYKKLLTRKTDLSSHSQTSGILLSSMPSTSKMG
UniProt Q62186: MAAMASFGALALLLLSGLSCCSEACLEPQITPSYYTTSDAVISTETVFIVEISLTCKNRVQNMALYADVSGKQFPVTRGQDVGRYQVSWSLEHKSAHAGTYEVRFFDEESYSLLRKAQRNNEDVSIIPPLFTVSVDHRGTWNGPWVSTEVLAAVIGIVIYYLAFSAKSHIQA
UniProt Q61656: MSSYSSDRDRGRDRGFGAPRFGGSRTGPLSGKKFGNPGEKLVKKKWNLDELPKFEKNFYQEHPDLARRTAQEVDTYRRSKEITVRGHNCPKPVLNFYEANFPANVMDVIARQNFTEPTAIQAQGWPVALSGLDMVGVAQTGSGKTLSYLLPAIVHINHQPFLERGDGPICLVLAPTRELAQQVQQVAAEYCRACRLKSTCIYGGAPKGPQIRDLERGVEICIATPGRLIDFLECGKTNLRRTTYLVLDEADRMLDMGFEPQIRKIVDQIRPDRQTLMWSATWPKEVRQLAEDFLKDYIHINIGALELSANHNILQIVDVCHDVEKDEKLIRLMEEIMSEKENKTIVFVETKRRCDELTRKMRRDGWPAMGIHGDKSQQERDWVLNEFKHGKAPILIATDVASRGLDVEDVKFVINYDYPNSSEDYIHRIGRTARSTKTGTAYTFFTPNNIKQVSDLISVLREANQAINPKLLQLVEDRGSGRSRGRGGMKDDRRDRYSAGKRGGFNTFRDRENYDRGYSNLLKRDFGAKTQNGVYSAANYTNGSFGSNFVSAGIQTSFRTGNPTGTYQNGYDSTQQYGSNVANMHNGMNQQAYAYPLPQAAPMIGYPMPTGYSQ
UniProt Q69Z36: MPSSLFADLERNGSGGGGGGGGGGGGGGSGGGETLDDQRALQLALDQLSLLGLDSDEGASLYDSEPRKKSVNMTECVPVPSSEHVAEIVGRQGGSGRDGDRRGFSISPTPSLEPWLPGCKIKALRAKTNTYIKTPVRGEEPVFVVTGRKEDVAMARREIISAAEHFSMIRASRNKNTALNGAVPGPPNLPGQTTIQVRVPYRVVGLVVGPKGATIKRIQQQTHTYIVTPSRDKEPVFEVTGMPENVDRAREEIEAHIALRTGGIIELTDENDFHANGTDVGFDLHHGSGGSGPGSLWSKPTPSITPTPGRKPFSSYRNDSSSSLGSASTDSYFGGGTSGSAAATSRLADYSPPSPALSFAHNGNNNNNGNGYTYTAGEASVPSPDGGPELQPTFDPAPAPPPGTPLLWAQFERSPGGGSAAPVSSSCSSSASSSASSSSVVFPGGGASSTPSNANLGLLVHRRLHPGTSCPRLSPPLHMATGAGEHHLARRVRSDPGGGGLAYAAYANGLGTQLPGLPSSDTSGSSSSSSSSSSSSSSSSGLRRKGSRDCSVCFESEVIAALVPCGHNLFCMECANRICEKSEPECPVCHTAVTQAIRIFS

The other results are listed elsewhere or left out. Small differences around the control level are noise.

Compound in the test: CN[C@@H]1C[C@H]2O[C@@](C)([C@@H]1OC)n1c3ccccc3c3c4c(c5c6ccccc6n2c5c31)C(=O)NC4 [staurosporine]
The test is described as follows: log2 fold change of tryptic peptide abundance, ligand vs vehicle (limited proteolysis) (log2 ratio); higher = more trypsin-susceptible (destabilized). As to conditions: ligand concentration: 20 uM; sample: mouse liver crude lysate; replicate design: treated separately.
As to “UniProt Q64437 (peptide sequence: IIGIDINKDKFQK, peptide start residue: 219)”, the log2 fold change is -0.0155.
Then “UniProt Q64339 (peptide sequence: IGVPAFQQR, peptide start residue: 36)”, with -0.231; and “UniProt Q61592 (peptide sequence: MFSGTPVIR, peptide start residue: 297)”, with 0.212.
As for “UniProt Q61329 (peptide sequence: QLMAQQELDR, peptide start residue: 3082)”, the log2 fold change was -0.51.
The figure for “UniProt Q64008 (peptide sequence: VTCACQEHR, peptide start residue: 36)” is -0.286.
The figure for “UniProt Q69Z38 (peptide sequence: STEAESILHSEGSR, peptide start residue: 901)” is -0.395; for “UniProt Q69Z37 (peptide sequence: IKIPVTSVYSAPLR, peptide start residue: 1521)” it is -0.73; for “UniProt Q61595 (peptide sequence: LLSAMKEDAAASK, peptide start residue: 343)” it is 0.4.
The figure for “UniProt Q640Q5 (peptide sequence: CMVLVDMWK, peptide start residue: 533)” is 0.283; for “UniProt Q62441 (peptide sequence: SKELSLNEK, peptide start residue: 307)” it is -0.382.
As for “UniProt Q61733 (peptide sequence: YLEDFPK, peptide start residue: 326)”, the log2 fold change stood at 0.203.
As for “UniProt Q62523 (peptide sequence: KFAPVVAPKPK, peptide start residue: 25)”, the log2 fold change turned out to be 0.474.
Then “UniProt Q64511 (peptide sequence: HLTYNDFINK, peptide start residue: 701)”, with 0.246; and “UniProt Q66JX5 (peptide sequence: IASFLSSSAVDAR, peptide start residue: 226)”, with -0.147.
Then “UniProt Q68FE8 (peptide sequence: SVNSDASDPGSVR, peptide start residue: 901)”, with 0.366; and “UniProt Q68FF6 (peptide sequence: LLSLGAQANFFHPEK, peptide start residue: 152)”, with -0.386.
The figure for “UniProt Q69ZK7 (peptide sequence: YSPQEKPLKPEVR, peptide start residue: 570)” is 0.442; for “UniProt Q689Z5 (peptide sequence: KDLLDKLEK, peptide start residue: 853)” it is 0.539; for “UniProt Q62425 (peptide sequence: KNNPEPWNK, peptide start residue: 48)” it is 0.179.
With “UniProt Q69ZJ7 (peptide sequence: TPEQTSPR, peptide start residue: 1365)”, the log2 fold change is -0.221.
Regarding “UniProt Q64436 (peptide sequence: VIMVTGDHPITAK, peptide start residue: 613)”, the log2 fold change was -0.341.
Then “UniProt Q68FH4 (peptide sequence: TKPLWHNYFLCGFK, peptide start residue: 103)”, with 0.376.
The figure for “UniProt Q61549 (peptide sequence: KTDLSSHSQTSGILLSSMPSTSK, peptide start residue: 907)” is -0.446; for “UniProt Q61337 (peptide sequence: AATNSHHGGAGAMETR, peptide start residue: 92)” it is -0.0853.
As to “UniProt Q61542 (peptide sequence: RPGDLACDLER, peptide start residue: 4)”, the log2 fold change is 0.126.
As to “UniProt Q64378 (peptide sequence: EKLTQAAIVK, peptide start residue: 263)”, the log2 fold change is 0.333.
The figure for “UniProt Q64446 (peptide sequence: AIATQVGINK, peptide start residue: 1226)” is 0.254.
The figure for “UniProt Q62504 (peptide sequence: VDSAPRPIPSWYMK, peptide start residue: 1498)” is -0.425.
As to “UniProt Q64455 (peptide sequence: IPVTNLSQLHK, peptide start residue: 203)”, the log2 fold change came out at 0.442.
On to “UniProt Q62186 (peptide sequence: FFDEESYSLLRK, peptide start residue: 105)”, for which the log2 fold change was -0.58.
The figure for “UniProt Q61586 (peptide sequence: FFNPSIPSLGLR, peptide start residue: 78)” is 0.223; for “UniProt Q61466 (peptide sequence: KRPAPQQIQQVQQQAVQNR, peptide start residue: 101)” it is 0.564.
Then “UniProt Q61585 (peptide sequence: EACEQQSLHK, peptide start residue: 68)”, with -0.203; and “UniProt Q61656 (peptide sequence: RTTYLVLDEADR, peptide start residue: 241)”, with -0.633; and “UniProt Q61624 (peptide sequence: ESVLDKSDLKK, peptide start residue: 330)”, with -0.594.
For “UniProt Q64512 (peptide sequence: VAAFPHEAPR, peptide start residue: 1667)”, the log2 fold change was -0.279.
Then “UniProt Q69Z36 (peptide sequence: VVGLVVGPK, peptide start residue: 330)”, with -0.0188; and “UniProt Q62388 (peptide sequence: SNVSATTQSSR, peptide start residue: 80)”, with 0.233; and “UniProt Q61699 (peptide sequence: EKENLSYDLVPMK, peptide start residue: 83)”, with 0.282.
